Laboratory results: the supplement of paper PMC12823440, “Inhibitors supercharge kinase turnover through native proteolytic circuits” (Nature, 2025)
Where a name gives a salt, the structure may show the parent alone. Some of the results follow. Hit calls seldom repeat between salt and free forms of one compound.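 Kinases, fused to nanoluciferase, were expressed in K562 cells; luminescence was measured every 4 h from 2 to 18 h as percent of control (DMSO = 100%, positive control = 0%). A time point is decreased if signal falls significantly (2 sigma). Hits were called by the authors by a rule that is not shown; the count of time points alone does not decide it.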

By UniProt entry, the sequences of proteins in these tests, tags left out. Where a name states a change or a piece, a line headed by the entry shows the natural chain unless it says otherwise.
UniProt Q05397, whole entry, looked up: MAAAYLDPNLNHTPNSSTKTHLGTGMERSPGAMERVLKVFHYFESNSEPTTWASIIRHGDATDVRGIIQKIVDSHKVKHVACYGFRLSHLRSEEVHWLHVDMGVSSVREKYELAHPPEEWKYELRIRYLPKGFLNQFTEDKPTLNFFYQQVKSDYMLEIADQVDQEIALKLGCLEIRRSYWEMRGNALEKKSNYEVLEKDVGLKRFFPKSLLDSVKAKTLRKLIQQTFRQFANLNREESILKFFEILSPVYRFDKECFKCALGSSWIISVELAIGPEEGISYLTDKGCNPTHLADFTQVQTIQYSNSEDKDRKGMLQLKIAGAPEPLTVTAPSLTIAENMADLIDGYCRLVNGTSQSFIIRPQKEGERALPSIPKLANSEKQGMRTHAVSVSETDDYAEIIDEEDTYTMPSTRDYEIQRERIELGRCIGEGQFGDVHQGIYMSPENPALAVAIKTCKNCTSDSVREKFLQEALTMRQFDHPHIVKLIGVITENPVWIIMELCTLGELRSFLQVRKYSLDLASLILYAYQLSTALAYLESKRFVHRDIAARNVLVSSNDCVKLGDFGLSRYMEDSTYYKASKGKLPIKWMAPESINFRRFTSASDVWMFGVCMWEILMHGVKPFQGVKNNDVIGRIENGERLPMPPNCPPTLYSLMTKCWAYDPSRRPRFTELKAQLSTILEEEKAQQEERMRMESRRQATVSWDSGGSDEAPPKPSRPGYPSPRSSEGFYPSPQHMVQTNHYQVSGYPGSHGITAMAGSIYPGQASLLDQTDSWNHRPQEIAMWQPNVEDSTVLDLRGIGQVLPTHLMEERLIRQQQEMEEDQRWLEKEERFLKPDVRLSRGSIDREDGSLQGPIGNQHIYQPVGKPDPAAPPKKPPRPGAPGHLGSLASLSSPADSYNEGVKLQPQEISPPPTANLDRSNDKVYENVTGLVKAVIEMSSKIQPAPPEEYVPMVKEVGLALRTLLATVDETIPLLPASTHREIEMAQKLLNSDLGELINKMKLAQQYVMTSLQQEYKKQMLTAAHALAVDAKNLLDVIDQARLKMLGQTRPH
UniProt Q14289, whole entry, looked up: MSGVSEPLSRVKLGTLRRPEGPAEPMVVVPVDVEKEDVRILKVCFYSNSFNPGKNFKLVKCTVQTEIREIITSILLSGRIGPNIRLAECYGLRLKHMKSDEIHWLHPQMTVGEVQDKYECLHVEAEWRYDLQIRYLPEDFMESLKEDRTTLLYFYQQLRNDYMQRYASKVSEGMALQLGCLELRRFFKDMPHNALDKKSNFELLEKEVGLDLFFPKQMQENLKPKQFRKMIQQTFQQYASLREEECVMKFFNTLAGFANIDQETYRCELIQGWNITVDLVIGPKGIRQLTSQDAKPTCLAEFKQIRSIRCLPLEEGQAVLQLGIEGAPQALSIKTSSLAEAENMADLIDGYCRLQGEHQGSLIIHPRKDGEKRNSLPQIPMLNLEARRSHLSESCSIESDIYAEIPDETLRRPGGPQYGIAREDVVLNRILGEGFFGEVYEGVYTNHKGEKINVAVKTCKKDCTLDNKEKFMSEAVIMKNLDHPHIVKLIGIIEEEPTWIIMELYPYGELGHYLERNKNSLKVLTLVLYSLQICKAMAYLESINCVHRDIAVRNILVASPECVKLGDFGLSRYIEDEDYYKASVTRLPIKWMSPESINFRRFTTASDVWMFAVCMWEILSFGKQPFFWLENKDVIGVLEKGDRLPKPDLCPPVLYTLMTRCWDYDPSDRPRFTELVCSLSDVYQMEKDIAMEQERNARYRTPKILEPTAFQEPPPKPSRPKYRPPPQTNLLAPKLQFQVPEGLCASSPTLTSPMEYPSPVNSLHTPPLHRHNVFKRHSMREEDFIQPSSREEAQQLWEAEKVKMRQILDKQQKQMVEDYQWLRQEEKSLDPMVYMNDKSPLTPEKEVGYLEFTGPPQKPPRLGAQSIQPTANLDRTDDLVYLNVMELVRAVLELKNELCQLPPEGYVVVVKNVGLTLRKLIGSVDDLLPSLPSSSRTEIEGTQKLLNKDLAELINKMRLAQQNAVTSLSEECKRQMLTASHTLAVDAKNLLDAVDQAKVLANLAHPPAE
UniProt P07949, whole entry, looked up: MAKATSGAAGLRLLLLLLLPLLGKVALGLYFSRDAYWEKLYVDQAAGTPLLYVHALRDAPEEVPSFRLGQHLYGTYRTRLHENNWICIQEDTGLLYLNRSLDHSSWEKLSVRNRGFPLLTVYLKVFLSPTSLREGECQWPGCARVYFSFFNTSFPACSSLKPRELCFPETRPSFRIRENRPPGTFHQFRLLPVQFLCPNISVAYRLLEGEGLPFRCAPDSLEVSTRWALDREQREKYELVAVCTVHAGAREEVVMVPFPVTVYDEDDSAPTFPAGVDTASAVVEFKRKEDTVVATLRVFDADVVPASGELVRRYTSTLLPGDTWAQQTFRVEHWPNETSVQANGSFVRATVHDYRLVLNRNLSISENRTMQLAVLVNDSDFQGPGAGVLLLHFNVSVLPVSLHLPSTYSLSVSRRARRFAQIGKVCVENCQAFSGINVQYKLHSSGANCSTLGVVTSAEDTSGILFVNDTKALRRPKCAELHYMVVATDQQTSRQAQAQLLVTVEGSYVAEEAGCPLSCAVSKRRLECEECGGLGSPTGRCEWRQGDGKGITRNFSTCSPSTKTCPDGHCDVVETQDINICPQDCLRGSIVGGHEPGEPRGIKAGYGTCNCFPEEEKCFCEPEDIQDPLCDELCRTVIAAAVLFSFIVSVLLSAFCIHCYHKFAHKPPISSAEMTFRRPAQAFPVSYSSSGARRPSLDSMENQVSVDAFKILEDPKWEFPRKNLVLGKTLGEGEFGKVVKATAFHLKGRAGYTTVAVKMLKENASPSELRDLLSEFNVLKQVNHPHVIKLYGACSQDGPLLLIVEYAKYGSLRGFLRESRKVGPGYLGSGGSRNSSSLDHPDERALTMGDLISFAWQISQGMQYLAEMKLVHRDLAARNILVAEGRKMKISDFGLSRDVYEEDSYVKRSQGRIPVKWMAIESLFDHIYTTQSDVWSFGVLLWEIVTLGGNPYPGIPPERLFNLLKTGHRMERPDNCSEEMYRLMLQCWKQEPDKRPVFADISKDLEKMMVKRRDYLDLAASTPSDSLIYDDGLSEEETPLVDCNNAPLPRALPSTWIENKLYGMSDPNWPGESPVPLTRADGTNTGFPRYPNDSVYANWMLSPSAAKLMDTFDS
UniProt P07949, whole entry M918T, looked up: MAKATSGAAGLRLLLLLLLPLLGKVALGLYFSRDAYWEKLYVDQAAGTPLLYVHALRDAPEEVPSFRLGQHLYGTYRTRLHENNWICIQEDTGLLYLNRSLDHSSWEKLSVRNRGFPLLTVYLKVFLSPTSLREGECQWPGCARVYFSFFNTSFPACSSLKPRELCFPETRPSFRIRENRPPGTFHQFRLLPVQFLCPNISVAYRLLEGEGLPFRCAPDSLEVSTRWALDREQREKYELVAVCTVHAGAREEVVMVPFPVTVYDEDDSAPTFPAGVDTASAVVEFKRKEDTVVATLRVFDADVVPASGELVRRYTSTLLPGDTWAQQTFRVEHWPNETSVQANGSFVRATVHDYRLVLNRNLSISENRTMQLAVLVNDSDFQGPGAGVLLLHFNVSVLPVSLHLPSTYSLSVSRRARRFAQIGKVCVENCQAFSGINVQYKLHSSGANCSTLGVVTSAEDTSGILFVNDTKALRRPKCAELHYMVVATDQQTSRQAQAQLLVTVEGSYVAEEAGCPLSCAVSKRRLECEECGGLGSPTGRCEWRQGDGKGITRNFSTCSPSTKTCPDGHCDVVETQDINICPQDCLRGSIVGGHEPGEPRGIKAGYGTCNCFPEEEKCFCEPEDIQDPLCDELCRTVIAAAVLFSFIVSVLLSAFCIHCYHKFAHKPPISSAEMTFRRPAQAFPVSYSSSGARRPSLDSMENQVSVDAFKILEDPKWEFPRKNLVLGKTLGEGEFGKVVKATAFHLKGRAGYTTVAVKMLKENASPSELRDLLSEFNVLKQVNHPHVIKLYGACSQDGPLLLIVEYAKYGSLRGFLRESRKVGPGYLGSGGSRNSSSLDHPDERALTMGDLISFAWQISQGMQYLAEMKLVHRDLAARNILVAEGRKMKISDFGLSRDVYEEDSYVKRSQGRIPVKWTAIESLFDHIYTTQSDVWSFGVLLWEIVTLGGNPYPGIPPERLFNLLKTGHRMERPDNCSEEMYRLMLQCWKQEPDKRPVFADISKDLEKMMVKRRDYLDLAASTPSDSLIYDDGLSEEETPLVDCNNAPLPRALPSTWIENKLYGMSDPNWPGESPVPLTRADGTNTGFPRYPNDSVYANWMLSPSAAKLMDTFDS
UniProt Q9BRS2: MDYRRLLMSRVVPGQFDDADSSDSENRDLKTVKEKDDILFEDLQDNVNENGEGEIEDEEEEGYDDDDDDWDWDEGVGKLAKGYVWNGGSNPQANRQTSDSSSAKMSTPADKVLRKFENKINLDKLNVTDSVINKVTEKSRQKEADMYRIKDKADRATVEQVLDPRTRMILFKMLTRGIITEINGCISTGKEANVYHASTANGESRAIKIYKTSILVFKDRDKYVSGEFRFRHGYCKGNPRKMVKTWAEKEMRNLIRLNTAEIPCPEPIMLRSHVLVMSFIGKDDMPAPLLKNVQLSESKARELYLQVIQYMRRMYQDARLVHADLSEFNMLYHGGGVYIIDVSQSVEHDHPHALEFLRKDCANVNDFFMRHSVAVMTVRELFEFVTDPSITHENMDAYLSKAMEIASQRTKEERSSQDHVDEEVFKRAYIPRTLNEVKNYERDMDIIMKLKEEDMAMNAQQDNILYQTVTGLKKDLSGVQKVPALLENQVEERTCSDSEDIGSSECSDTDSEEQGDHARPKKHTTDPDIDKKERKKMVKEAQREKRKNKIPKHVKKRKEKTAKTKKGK
UniProt Q13546: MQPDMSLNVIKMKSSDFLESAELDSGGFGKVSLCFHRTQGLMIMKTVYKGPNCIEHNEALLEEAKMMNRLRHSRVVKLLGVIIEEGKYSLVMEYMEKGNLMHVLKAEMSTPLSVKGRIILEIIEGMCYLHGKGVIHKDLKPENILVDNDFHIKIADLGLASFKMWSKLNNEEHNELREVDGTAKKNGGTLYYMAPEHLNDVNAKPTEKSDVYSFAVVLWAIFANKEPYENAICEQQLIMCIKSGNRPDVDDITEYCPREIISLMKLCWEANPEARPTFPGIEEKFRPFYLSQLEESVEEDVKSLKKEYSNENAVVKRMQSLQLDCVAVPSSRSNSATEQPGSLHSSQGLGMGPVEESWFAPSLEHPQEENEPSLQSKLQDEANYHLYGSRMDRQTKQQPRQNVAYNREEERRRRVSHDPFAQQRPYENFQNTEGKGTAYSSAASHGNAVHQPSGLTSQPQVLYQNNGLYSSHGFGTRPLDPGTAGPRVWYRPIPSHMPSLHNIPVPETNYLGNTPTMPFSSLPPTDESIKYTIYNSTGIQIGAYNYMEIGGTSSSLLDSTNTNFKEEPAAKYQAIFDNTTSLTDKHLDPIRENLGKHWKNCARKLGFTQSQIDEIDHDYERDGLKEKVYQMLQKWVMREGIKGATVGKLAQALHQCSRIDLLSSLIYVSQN

Key:
Test in all cases: number of time points (of 5) at which kinase-Nluc abundance scored as decreased, DMSO-normalised (count); higher = more persistent destabilization
Details in all cases: K562; 2-18 h
[1] = target: PRKCA (UniProt P17252)
[2] = target: PTK2 (UniProt Q05397)
[3] = target: PTK2B (UniProt Q14289)
[4] = target: RAF1 (UniProt P04049)
[5] = target: RAF1_S257L (clone: RAF1_mut) (UniProt P04049)
[6] = target: RET (UniProt P07949)
[7] = target: RET_M918T (clone: RET_mut) (UniProt P07949)
[8] = target: RIOK1 (UniProt Q9BRS2)
[9] = target: RIPK1 (UniProt Q13546)
[10] = target: RIPK2 (UniProt O43353)

Measured: number of time points

CC(C)(Oc1ccc(Cl)cc1)C(=O)Nc1ccc(OCc2ccc(C#N)cc2)cc1 [AMPK activator 4] (10 µM)
0: all assays above

CNCc1cc(Oc2ccc3c(ccn3C(=O)Nc3cc(C(F)(F)F)n(C)n3)c2)ncn1 [Acrizanib] (10 µM)
1: [9]
0: all other assays above

N=C(NC(=N)N1CCCC1)Nc1ccc(OC(F)(F)F)cc1 (10 µM)
0: all assays above

NCCNS(=O)(=O)c1ccc(Cl)c2ccncc12 [CKI-7 (free base)] (10 µM)
0: all assays above

CN1CCC(Nc2ccc(C(=O)Nc3cc(-c4ccc5c(c4)OCO5)[nH]n3)cc2)CC1 (10 µM)
1: [7]
2: [5]
0: all other assays above

Cc1nc(Nc2cnn(C3CCNCC3)c2)nc2c1N(C)C(=O)c1cc3ccccc3cc1N2C (2.5 µM)
0: all assays above

CCOC(=O)c1c(C)[nH]c(C=C2C(=O)Nc3ccccc32)c1C (10 µM)
0: all assays above

O=c1c(O)c(-c2ccc(O)c(O)c2)oc2cc(O)c(O)c(O)c12 [Quercetagetin] (10 µM)
0: all assays above

Oc1ccc(-c2cnc3ccc(NCc4ccco4)nn23)cc1 [IRAK inhibitor 2] (2.5 µM)
4: [10]
0: all other assays above

CCCCC(=O)OCC(=O)[C@]1(O)Cc2c(O)c3c(c(O)c2[C@@H](O[C@H]2C[C@H](NC(=O)C(F)(F)F)[C@H](O)[C@H](C)O2)C1)C(=O)c1c(OC)cccc1C3=O [Valrubicin] (10 µM)
2: [6]
0: all other assays above

CC(=O)Nc1nc(C)c(-c2cc(C)c3c(c2)CN([C@@H](C)C2CC2)C3=O)s1 (10 µM)
0: all assays above

CC(C)n1c(CO)nc2c(F)cc(-c3nc(Nc4ccc(CN5CCNCC5)cn4)ncc3F)cc21 (10 µM)
4: [5] | [7]
2: [8]
0: [1] | [3] | [6]
3: all other assays above

O=C(COc1ccc(Cl)cc1)NC1CCC(NC(=O)COc2ccc(Cl)cc2)CC1 (stereo not drawn) [ISRIB (trans-isomer)] (10 µM)
0: all assays above

Cc1ccc(C2CC(=O)NC(SCC(=O)Nc3nccs3)=C2C#N)cc1 (stereo not given) [Necrostatin-34] (10 µM)
0: all assays above

NC(=O)c1cnc(N[C@@H]2CCCC[C@@H]2N)nc1Nc1cccc(-n2nccn2)c1 (2.5 µM)
0: all assays above

CC(C)n1cnc2c(Nc3cccc(Cl)c3)nc(N[C@H]3CCCC[C@@H]3N)nc21 (2.5 µM)
0: all assays above

By substructure: those above containing an NH in an aromatic ring
CN1CCC(Nc2ccc(C(=O)Nc3cc(-c4ccc5c(c4)OCO5)[nH]n3)cc2)CC1 (10 µM)
1: [7]
2: [5]
0: all other assays above

CCOC(=O)c1c(C)[nH]c(C=C2C(=O)Nc3ccccc32)c1C (10 µM)
0: all assays above

The list goes on.

COc1ccc(CCNCc2ccc(OCc3ccc(Cl)nc3)c(OC)c2)cc1OC [SBE13 (Hydrochloride)] (10 µM)
0: all assays above

Cc1ccc(NC(=O)N2CCN(c3nc(N)nc4sc(-c5cccnc5)nc34)CC2)cc1 [PI4KIII beta inhibitor 3] (10 µM)
0: all assays above

CC(C)Cn1ncc2cc(Oc3ccc(F)cc3F)c(C(=O)NCCN(C)C)cc21 [p38α inhibitor 1] (10 µM)
0: all assays above

CC1=C(C#N)C(c2ccc3[nH]nc(C)c3c2)C(C#N)=C(C)N1 (10 µM)
0: all assays above

CC1(C)CN(C(=O)c2ccc(-c3cccc4nc(NC(=O)C5CC5)nn34)cc2)C1 [Solcitinib] (10 µM)
0: all assays above

CCC[C@H](C)Oc1nc(N)c2[nH]c(=O)n(CCCCCN3CCCCC3)c2n1 (10 µM)
0: all assays above

COc1ccc(-c2cc(=O)c3c(O)cc(O)cc3o2)cc1-c1c(O)cc(O)c2c(=O)cc(-c3ccc(O)cc3)oc12 [Bilobetin] (2.5 µM)
0: all assays above

Cc1nc(NC(=O)N2CCC[C@H]2C(N)=O)sc1-c1ccnc(C(C)(C)C(F)(F)F)c1 [Alpelisib] (2.5 µM)
0: all assays above

CS(=O)(=O)c1ccc([C@@H](CC2CCCC2)C(=O)Nc2nccs2)cc1 (10 µM)
0: all assays above

COc1cc2nc(-c3cc(F)ccc3O)nc(N[C@@H]3CNC[C@H]3C(C)(C)O)c2cc1OC (2.5 µM)
0: all assays above

S=C(NCc1ccc2c(c1)OCO2)N1CCN(c2ncnc3c2oc2ccccc23)CC1 [Amuvatinib] (2.5 µM)
0: all assays above

COc1cc2nccc(Nc3cccc(Oc4ccccc4)c3)c2cc1OC (2.5 µM)
0: all assays above

Cc1nc2c(NCc3cccc(S(C)(=O)=O)c3)nccn2c1-c1ccc(O)c(F)c1 (10 µM)
1: [1]
0: all other assays above

C=CC(=O)Nc1cc(Nc2nccc(-c3cn(C)c4ccccc34)n2)c(OCC(F)(F)F)nc1N(C)CCNC [AST5902  (trimesylate)] (2.5 µM)
2: [3]
1: [5] | [9]
0: all other assays above

CNc1cc2c(Nc3cccc(Br)c3)ncnc2cn1 (10 µM)
0: all assays above

CC/C(=C(\c1ccccc1)c1ccc(OCCNC)cc1)c1ccccc1 [N-Desmethyltamoxifen (hydrochloride)] (2.5 µM)
0: all assays above

Nc1ccc(-c2cccc(C(=O)Nc3cnc4nc(N5CCOCC5)oc4c3)n2)cn1 (10 µM)
3: [2]
0: all other assays above

C[C@@H]1COC(Nc2ccc3ncnc(Nc4ccc(OCc5nccs5)c(Cl)c4)c3c2)=N1 [Varlitinib] (10 µM)
5: [2]
0: all other assays above
